Publication PMC8967906
No constants are given. Whether binding was seen depends on the method and setting. Binding seen in cells or lysates may run through a third protein. A yes stands for co-enrichment or nearness to the bait. Other partners may have been found.

Target: T1, TRIM46 (human (endogenous in H358)) (UniProt Q7Z4K8)
T1 sequence: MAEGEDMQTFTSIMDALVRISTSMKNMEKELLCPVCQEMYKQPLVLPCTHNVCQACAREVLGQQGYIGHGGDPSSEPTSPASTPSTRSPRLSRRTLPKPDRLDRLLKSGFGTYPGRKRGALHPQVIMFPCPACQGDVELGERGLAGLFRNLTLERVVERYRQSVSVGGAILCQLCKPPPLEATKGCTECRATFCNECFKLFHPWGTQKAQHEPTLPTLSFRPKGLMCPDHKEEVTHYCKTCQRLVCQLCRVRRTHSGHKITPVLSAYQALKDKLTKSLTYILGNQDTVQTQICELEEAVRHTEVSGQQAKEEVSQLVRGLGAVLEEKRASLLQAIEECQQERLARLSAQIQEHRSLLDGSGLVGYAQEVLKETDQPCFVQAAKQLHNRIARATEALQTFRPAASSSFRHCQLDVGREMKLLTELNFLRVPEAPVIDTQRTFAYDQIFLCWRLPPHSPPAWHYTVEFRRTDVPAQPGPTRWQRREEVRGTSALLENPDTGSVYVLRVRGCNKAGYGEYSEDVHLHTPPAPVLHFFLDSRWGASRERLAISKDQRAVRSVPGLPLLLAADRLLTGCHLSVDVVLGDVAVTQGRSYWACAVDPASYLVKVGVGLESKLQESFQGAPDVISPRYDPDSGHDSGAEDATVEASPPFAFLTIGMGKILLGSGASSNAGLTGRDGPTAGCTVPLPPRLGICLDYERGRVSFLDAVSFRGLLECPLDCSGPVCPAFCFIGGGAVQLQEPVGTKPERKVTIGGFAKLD
Assay: affinity purification with mass spectrometry; IP and mass spectrometry to analyze TRIM46 binding proteins; cells and conditions not told in the text shown

B1: pleckstrin homology domain leucine-rich repeat protein phosphatase 2 (protein, UniProt Q6ZVD8 1-1323)
chain: MKRNGSRNCLNRRSRFGSRERDWLREDVKRGCVYLYGADTTTATTTTTTSSSSSSSSSSSDLHLVLCTVETPASEICAGEGRESLYLQLHGDLVRRLEPTERPLQIVYDYLSRLGFDDPVRIQEEATNPDLGCMIRFYGEKPCHMDRLDRILLSGIYNVRKGKTQLHKWAERLVVLCGTCLIVSSVKDCQTGKMHILPLVGGKIEEVKRRQYSLAFSSAGAQAQTYHVSFETLAEYQRWQRQASKVVSQRISTVDLSCYSLEEVPEHLFYSQDITYLNLRHNFMQLERPGGLDTLYKFSQLKGLNLSHNKLGLFPILLCEISTLTELNLSCNGFHDLPSQIGNLLNLQTLCLDGNFLTTLPEELGNLQQLSSLGISFNNFSQIPEVYEKLTMLDRVVMAGNCLEVLNLGVLNRMNHIKHVDLRMNHLKTMVIENLEGNKHITHVDLRDNRLTDLDLSSLCSLEQLHCGRNQLRELTLSGFSLRTLYASSNRLTAVNVYPVPSLLTFLDLSRNLLECVPDWACEAKKIEVLDVSYNLLTEVPVRILSSLSLRKLMLGHNHVQNLPTLVEHIPLEVLDLQHNALTRLPDTLFSKALNLRYLNASANSLESLPSACTGEESLSMLQLLYLTNNLLTDQCIPVLVGHLHLRILHLANNQLQTFPASKLNKLEQLEELNLSGNKLKTIPTTIANCKRLHTLVAHSNNISIFPEILQLPQIQFVDLSCNDLTEILIPEALPATLQDLDLTGNTNLVLEHKTLDIFSHITTLKIDQKPLPTTDSTVTSTFWSHGLAEMAGQRNKLCVSALAMDSFAEGVGAVYGMFDGDRNEELPRLLQCTMADVLLEEVQQSTNDTVFMANTFLVSHRKLGMAGQKLGSSALLCYIRPDTADPASSFSLTVANVGTCQAVLCRGGKPVPLSKVFSLEQDPEEAQRVKDQKAIITEDNKVNGVTCCTRMLGCTYLYPWILPKPHISSTPLTIQDELLILGNKALWEHLSYTEAVNAVRHVQDPLAAAKKLCTLAQSYGCQDNVGAMVVYLNIGEEGCTCEMNGLTLPGPVGFASTTTIKDAPKPATPSSSSGIASEFSSEMSTSEVSSEVGSTASDEHNAGGLDTALLPRPERRCSLHPTPTSGLFQRQPSSATFSSNQSDNGLDSDDDQPVEGVITNGSKVEVEVDIHCCRGRDLENSPPLIESSPTLCSEEHARGSCFGIRRQNSVNSGMLLPMSKDRMELQKSPSTSCLYGKKLSNGSIVPLEDSLNLIEVATEVPKRKTGYFAAPTQMEPEDQFVVPHDLEEEVKEQMKQHQDSRLEPEPHEEDRTEPPEEFDTAL
Which binding does the source give for B1 here?
Its binding is “binds”.
